Data published in patent publication US20170349669A1.
No constants are given. Whether binding was seen depends on the method and setting. Some entries that bind do so weakly or less than the wild type.

The chains behind the UniProt entries cited, without tags or fusion partners. Residues count along the entry.
UniProt O43508, residues 94-249: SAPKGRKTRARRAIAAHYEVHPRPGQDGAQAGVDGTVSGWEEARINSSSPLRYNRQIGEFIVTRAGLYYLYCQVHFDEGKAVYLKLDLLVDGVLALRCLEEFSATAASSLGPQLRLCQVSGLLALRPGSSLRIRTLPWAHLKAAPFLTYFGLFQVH

Biological target: TWEAK (human) (UniProt O43508)
Test: SPR Biacore

Row | binding | Binder
1 | binds | TweakIL17_102 (bispecific antibody, human IgG4 S228P, kappa) heavy 1: DIQMTQSPSSVSASVGDRVTITCQASQNIYSNLAWYQQKPGKAPKLLIYTASYLASGVPSRFSGSGSGTDYTLTISSLQPEDFATYYCQTAYYNSRPDTVAFGGGTKVEIKRTVAAPSVFIFPPSDEQLKSGTASVVCLLNNFYPREAKVQWKVDNALQSGNSQESVTEQDSKDSTYSLSSTLTLSKADYEKHKVYACEVTHQGLSSPVTKSFNRGECPPCPPCPAPEFEGGPSVFLFPPKPKDTLMISRTPEVTCVVVDVSQEDPEVQFNWYVDGVEVHNAKTKPREEQFNSTYRVVSVLTVLHQDWLNGKEYKCKVSNKGLPSSIEKTISKAKGQPREPQVYTLPPCQEEMTKNQVSLWCLVKGFYPSDIAVEWESNGQPENNYKTTPPVLDSDGSFFLYSRLTVDKSRWQEGNVFSCSVMHEALHNHYTQKSLSLSL light 1: QVQLVQSGAEVKKPGSSVKVSCKASGFDFSTYYMSWVRQAPGQGLEWMGTVYVRQGTTYYASWLNGRVTITADESTSTAYMELSSLRSEDTAVYYCARGGYNYDDAFVIWGQGTLVTVSSASTKGPSVFPLAPCSRSTSESTAALGCLVKDYFPEPVTVSWNSGALTSGVHTFPAVLQSSGLYSLSSVVTVPSSSLGTKTYTCNVDHKPSNTKVDKRVESKYG heavy 2: EVQLVESGGGLVQPGGSLRLSCAASGFSLDSYGVHWVRQATGKGLEWVSVIWSDGTTTYNSALKSRFTISRENAKNSLYLQMNSLRAGDTAVYYCARDTHYRLYYYAMDYWGQGTTVTVSSASTKGPSVFPLAPCSRSTSESTAALGCLVEDYFPEPVTVSWNSGALTSGVHTFPAVLQSSGLYSLSSVVTVPSSSLGTKTYTCNVDHKPSNTKVDERVESKYGPPCPPCPAPEFEGGPSVFLFPPKPKDTLMISRTPEVTCVVVDVSQEDPEVQFNWYVDGVEVHNAKTKPREEQFNSTYRVVSVLTVLHQDWLNGKEYKCKVSNKGLPSSIEKTISKAKGQPREPQVCTLPPSQEEMTKNQVSLSCAVKGFYPSDIAVEWESNGQPENNYKTTPPVLDSDGSFFLVSRLTVDKSRWQEGNVFSCSVMHEALHNHYTQKSLSLSL light 2: DIVMTQSPLSLPVTPGEPASISCRSSQSLVHSNGDTYFHWYLQKPGQSPQLLIYKVSNRFSGVPDRFSGSGSGTDFTLKISRVEAEDVGVYYCSQTTHAPFTFGQGTKLEIKRTVAAPSVFIFPPSDKKLKSGTASVVCLLNNFYPREAKVQWKVDNALQSGNSQESVTEQDSKDSTYSLSSTLTLSKADYEKHKVYACEVTHQGLSSPVTKSFNRGEC
2 | binds | TweakIL17_103 (bispecific antibody, human IgG4 S228P, kappa) heavy 1: DIQMTQSPSSVSASVGDRVTITCQASQNIYSNLAWYQQKPGKAPKLLIYTASYLASGVPSRFSGSGSGTDYTLTISSLQPEDFATYYCQTAYYNSRPDTVAFGGGTKVEIKRTVAAPSVFIFPPSDEELKSGTASVVCLLNNFYPREAKVQWKVDNALQSGNSQESVTEQDSKDSTYSLSSTLTLSKADYEKHKVYACEVTHQGLSSPVTKSFNRGECPPCPPCPAPEFEGGPSVFLFPPKPKDTLMISRTPEVTCVVVDVSQEDPEVQFNWYVDGVEVHNAKTKPREEQFNSTYRVVSVLTVLHQDWLNGKEYKCKVSNKGLPSSIEKTISKAKGQPREPQVYTLPPCQEEMTKNQVSLWCLVKGFYPSDIAVEWESNGQPENNYKTTPPVLDSDGSFFLYSRLTVDKSRWQEGNVFSCSVMHEALHNHYTQKSLSLSL light 1: QVQLVQSGAEVKKPGSSVKVSCKASGFDFSTYYMSWVRQAPGQGLEWMGTVYVRQGTTYYASWLNGRVTITADESTSTAYMELSSLRSEDTAVYYCARGGYNYDDAFVIWGQGTLVTVSSASTKGPSVFPLAPCSRSTSESTAALGCLVKDYFPEPVTVSWNSGALTSGVHTFPAVLQSSGLYSLSSVVTVPSSSLGTKTYTCNVDHKPSNTKVDKRVESKYG heavy 2: EVQLVESGGGLVQPGGSLRLSCAASGFSLDSYGVHWVRQATGKGLEWVSVIWSDGTTTYNSALKSRFTISRENAKNSLYLQMNSLRAGDTAVYYCARDTHYRLYYYAMDYWGQGTTVTVSSASTKGPSVFPLAPCSRSTSESTAALGCLVEDYFPEPVTVSWNSGALTSGVHTFPAVLQSSGLYSLSSVVTVPSSSLGTKTYTCNVDHKPSNTKVDERVESKYGPPCPPCPAPEFEGGPSVFLFPPKPKDTLMISRTPEVTCVVVDVSQEDPEVQFNWYVDGVEVHNAKTKPREEQFNSTYRVVSVLTVLHQDWLNGKEYKCKVSNKGLPSSIEKTISKAKGQPREPQVCTLPPSQEEMTKNQVSLSCAVKGFYPSDIAVEWESNGQPENNYKTTPPVLDSDGSFFLVSRLTVDKSRWQEGNVFSCSVMHEALHNHYTQKSLSLSL light 2: DIVMTQSPLSLPVTPGEPASISCRSSQSLVHSNGDTYFHWYLQKPGQSPQLLIYKVSNRFSGVPDRFSGSGSGTDFTLKISRVEAEDVGVYYCSQTTHAPFTFGQGTKLEIKRTVAAPSVFIFPPSDKKLKSGTASVVCLLNNFYPREAKVQWKVDNALQSGNSQESVTEQDSKDSTYSLSSTLTLSKADYEKHKVYACEVTHQGLSSPVTKSFNRGEC
3 | binds | TweakIL17_0128 (bispecific antibody, human IgG4 S228P, kappa) heavy 1: DIQMTQSPSSVSASVGDRVTITCQASQNIYSNLAWYQEKPGKAPKLLIYTASYLASGVPSRFSGSGSGTDYTLTISSLQPEDFATYYCQTAYYNSRPDTVAFGGGTKVEIKRTVAAPSVFIFPPSDEELKSGTASVVCLLNNFYPREAKVQWKVDNALQSGNSQESVTEQDSKDSTYSLSSTLTLSKADYEKHKVYACEVTHQGLSSPVTKSFNRGECPPCPPCPAPEFEGGPSVFLFPPKPKDTLMISRTPEVTCVVVDVSQEDPEVQFNWYVDGVEVHNAKTKPREEQFNSTYRVVSVLTVLHQDWLNGKEYKCKVSNKGLPSSIEKTISKAKGQPREPQVYTLPPCQEEMTKNQVSLWCLVKGFYPSDIAVEWESNGQPENNYKTTPPVLDSDGSFFLYSRLTVDKSRWQEGNVFSCSVMHEALHNHYTQKSLSLSL light 1: QVQLVQSGAEVKKPGSSVKVSCKASGFDFSTYYMSWVRKAPGQGLEWMGTVYVRQGTTYYASWLNGRVTITADESTSTAYMELSSLRSEDTAVYYCARGGYNYDDAFVIWGQGTLVTVSSASTKGPSVFPLAPCSRSTSESTAALGCLVKDYFPEPVTVSWNSGALTSGVHTFPAVLQSSGLYSLSSVVTVPSSSLGTKTYTCNVDHKPSNTKVDKRVESKYG heavy 2: EVQLVESGGGLVQPGGSLRLSCAASGFSLDSYGVHWVREATGKGLEWVSVIWSDGTTTYNSALKSRFTISRENAKNSLYLQMNSLRAGDTAVYYCARDTHYRLYYYAMDYWGQGTTVTVSSASTKGPSVFPLAPCSRSTSESTAALGCLVEDYFPEPVTVSWNSGALTSGVHTFPAVLQSSGLYSLSSVVTVPSSSLGTKTYTCNVDHKPSNTKVDERVESKYGPPCPPCPAPEFEGGPSVFLFPPKPKDTLMISRTPEVTCVVVDVSQEDPEVQFNWYVDGVEVHNAKTKPREEQFNSTYRVVSVLTVLHQDWLNGKEYKCKVSNKGLPSSIEKTISKAKGQPREPQVCTLPPSQEEMTKNQVSLSCAVKGFYPSDIAVEWESNGQPENNYKTTPPVLDSDGSFFLVSRLTVDKSRWQEGNVFSCSVMHEALHNHYTQKSLSLSL light 2: DIVMTQSPLSLPVTPGEPASISCRSSQSLVHSNGDTYFHWYLKKPGQSPQLLIYKVSNRFSGVPDRFSGSGSGTDFTLKISRVEAEDVGVYYCSQTTHAPFTFGQGTKLEIKRTVAAPSVFIFPPSDKKLKSGTASVVCLLNNFYPREAKVQWKVDNALQSGNSQESVTEQDSKDSTYSLSSTLTLSKADYEKHKVYACEVTHQGLSSPVTKSFNRGEC
